# Assay results taken from the supplement of paper PMC5355238.
# Where a name gives a salt, the structure may show the parent alone. Some of the results follow. Repeats are few or missing, and single values can be far off.
# Tested on: Reh
# Assay: S-phase gammaH2AX median, Z-score vs plate median (drug alone); higher = more S-phase DNA damage
# Settings: MK1775 concentration 0 nM; 10 µM; 4 h
row,Compound,S-phase gammaH2AX median (Z-score)
1,CN1[C@@H]2CC[C@H]1C[C@@H](OC(c1ccccc1)c1ccccc1N)C2 (stereo not given in full) [Aminobenztropine],-0.0466
2,C[C@@]12N[C@@H](Cc3ccccc31)c1ccccc12 [(-)-MK-801 hydrogen maleate],-0.0568
3,C#CCN[C@H](C)Cc1ccccc1 [R-(-)-Desmethyldeprenyl hydrochloride],-0.022
4,CCCN(CCC)[C@@H]1CCc2cccc(O)c2C1 [R-(+)-8-Hydroxy-DPAT hydrobromide],-0.0567
5,"CCCN1CCc2cc(O)cc3c2[C@H]1Cc1ccc(O)c(O)c1-3 [R(-)-2,10,11-Trihydroxy-N-propylnoraporphine hydrobromide]",0.148
6,CC1(C(=O)O)C2CCC(O2)C1(C)C(=O)O (stereo not given) [Cantharidic Acid],0.144
7,CC(C)(C)NCC(O)c1ccccc1Cl (stereo not given) [Tulobuterol hydrochloride],-0.0601
8,Cc1nnc2ccc(-c3cccc(C(F)(F)F)c3)nn12,-0.759
9,CS(=N)(=O)CC[C@H](N)C(=O)O (stereo partly drawn) [L-Methionine sulfoximine],-0.0568
10,COc1cc([C@@H]2c3cc4c(cc3[C@H](O)[C@H]3COC(=O)[C@H]23)OCO4)cc(OC)c1OC [Podophyllotoxin],-0.0213
11,CC[C@H]1CN2CCc3cc(OC)c(OC)cc3[C@@H]2C[C@@H]1C[C@H]1NCCc2cc(OC)c(OC)cc21 [Emetine dihydrochloride hydrate],0.983
12,NCCc1c[nH]c2ccc(O)cc12 [Serotonin hydrochloride],-0.104
13,"Ic1ccccc1CNC1C2CCN(CC2)C1C(c1ccccc1)c1ccccc1 [L-703,606 oxalate]",-0.237
14,CCCN(CCC)CCc1ccc(O)c(O)c1 [Dipropyldopamine hydrobromide],-0.0378
15,CC[C@@H]1/C=C/C=C/C[C@H](C)[C@H](O)[C@](C)(O)C(=O)[C@H](C)[C@@H](O)[C@H](C)C(=O)[C@H](C)[C@@H](O)[C@H](C)/C=C/C(=O)O[C@H]2[C@@H](C)[C@@H](CC1)O[C@@]1(CC[C@@H](C)[C@@H](C[C@H](C)O)O1)[C@@H]2C [Oligomycin A],0.258
16,Clc1ccc(N2C[C@H]3CC[C@@H](C2)N3)nn1,0.0283
17,NCCc1c[nH]c2ccccc12 [Tryptamine hydrochloride],-0.0699
18,CCNC(=O)[C@H]1O[C@@H](n2cnc3c(N)ncnc32)[C@H](O)[C@@H]1O [5'-N-Ethylcarboxamidoadenosine],-0.0882
19,Cc1cccc(C)c1NC1=NCCCS1 [Xylazine hydrochloride],-0.3
20,CCCN1CCC[C@@H](c2cccc(O)c2)C1 [S(-)-3PPP hydrochloride],0.0922

# 4 compounds from above, arranged by molar mass, smallest number first.
row,Compound,S-phase gammaH2AX median (Z-score)
17,NCCc1c[nH]c2ccccc12 [Tryptamine hydrochloride],-0.0699
3,C#CCN[C@H](C)Cc1ccccc1 [R-(-)-Desmethyldeprenyl hydrochloride],-0.022
5,"CCCN1CCc2cc(O)cc3c2[C@H]1Cc1ccc(O)c(O)c1-3 [R(-)-2,10,11-Trihydroxy-N-propylnoraporphine hydrobromide]",0.148
15,CC[C@@H]1/C=C/C=C/C[C@H](C)[C@H](O)[C@](C)(O)C(=O)[C@H](C)[C@@H](O)[C@H](C)C(=O)[C@H](C)[C@@H](O)[C@H](C)/C=C/C(=O)O[C@H]2[C@@H](C)[C@@H](CC1)O[C@@]1(CC[C@@H](C)[C@@H](C[C@H](C)O)O1)[C@@H]2C [Oligomycin A],0.258
